Data as given in publication PMC8150921.
No constants are given. Whether binding was seen depends on the method and setting. Binding seen in cells or lysates may run through a third protein. Some entries that bind do so weakly or less than the wild type.

By UniProt entry, the sequences of proteins in these tests, tags left out. Residues count along the entry.
UniProt P40763: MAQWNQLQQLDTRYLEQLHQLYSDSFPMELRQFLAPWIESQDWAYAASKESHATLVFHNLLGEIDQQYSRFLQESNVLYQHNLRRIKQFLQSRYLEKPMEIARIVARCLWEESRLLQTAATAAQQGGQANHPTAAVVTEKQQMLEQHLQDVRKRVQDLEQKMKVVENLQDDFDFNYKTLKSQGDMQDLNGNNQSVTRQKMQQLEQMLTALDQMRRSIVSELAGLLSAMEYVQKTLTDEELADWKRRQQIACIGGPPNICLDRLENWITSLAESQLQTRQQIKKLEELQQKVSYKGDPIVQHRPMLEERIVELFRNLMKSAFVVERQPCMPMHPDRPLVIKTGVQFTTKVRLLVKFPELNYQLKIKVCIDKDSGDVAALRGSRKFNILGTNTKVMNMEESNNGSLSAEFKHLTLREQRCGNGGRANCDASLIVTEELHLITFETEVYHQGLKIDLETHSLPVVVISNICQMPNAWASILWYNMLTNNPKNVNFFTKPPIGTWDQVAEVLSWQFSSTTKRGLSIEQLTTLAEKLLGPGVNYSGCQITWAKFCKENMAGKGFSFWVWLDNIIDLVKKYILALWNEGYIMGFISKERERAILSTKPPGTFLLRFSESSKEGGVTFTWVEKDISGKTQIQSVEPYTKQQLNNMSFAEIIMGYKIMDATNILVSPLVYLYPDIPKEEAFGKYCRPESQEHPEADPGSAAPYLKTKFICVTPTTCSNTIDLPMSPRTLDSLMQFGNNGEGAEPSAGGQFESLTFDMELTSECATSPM
UniProt P04629, residues 33-796: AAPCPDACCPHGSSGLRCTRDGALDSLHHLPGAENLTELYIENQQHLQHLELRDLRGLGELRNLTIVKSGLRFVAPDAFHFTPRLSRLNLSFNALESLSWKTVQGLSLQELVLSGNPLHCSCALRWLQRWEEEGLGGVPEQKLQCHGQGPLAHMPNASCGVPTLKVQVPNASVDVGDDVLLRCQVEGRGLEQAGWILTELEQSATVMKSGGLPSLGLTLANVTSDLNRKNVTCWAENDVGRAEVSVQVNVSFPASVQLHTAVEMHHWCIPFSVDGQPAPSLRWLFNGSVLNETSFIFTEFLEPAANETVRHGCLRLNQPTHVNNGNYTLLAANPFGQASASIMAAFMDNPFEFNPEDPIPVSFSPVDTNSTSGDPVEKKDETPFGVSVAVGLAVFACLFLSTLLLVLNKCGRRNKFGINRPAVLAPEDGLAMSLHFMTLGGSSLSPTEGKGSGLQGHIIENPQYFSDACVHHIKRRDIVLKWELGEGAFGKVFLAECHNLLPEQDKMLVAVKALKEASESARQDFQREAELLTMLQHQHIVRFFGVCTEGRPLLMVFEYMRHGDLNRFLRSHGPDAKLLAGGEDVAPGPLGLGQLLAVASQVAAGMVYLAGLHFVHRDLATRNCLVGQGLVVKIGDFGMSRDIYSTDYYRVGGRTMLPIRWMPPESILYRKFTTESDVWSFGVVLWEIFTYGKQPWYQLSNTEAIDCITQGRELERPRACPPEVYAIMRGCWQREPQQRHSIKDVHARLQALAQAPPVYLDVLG

Tests used:
[1] = molecular target: flag-tagged STAT3 (STAT3-WT-Flag) (UniProt P40763); assay: co-IP; Flag antibody IP from lysates of transfected HEK293 cells, Western blot for p-TrkA and total TrkA
[2] = molecular target: endogenous p-TrkA (Y490) of MDA-MB-468 cells (human (endogenous in MDA-MB-468)) (UniProt P04629); assay: co-IP; IP of endogenous p-TrkA (Y490) from MDA-MB-468 lysate with p-TrkA (Y490) antibody on Dynabeads Protein G, overnight at 4 °C, Western blot for STAT3
[3] = molecular target: p-TrkA (Y490) in HEK293 cells (human (endogenous in HEK293)) (UniProt P04629); assay: co-IP; reciprocal IP with p-TrkA (Y490) antibody on Dynabeads Protein G from lysates of HEK293 cells transfected with STAT3-Flag, overnight at 4 °C, Western blot

binding [1] | Substance | further results
binds | p-TrkA (Y490) in HEK293 cells (from UniProt P04629 33-796) (receptor) | 
 | endogenous STAT3 of MDA-MB-468 cells (from UniProt P40763 1-770) | binding [2]: binds
binds | TrkA (total TrkA) in HEK293 cells (from UniProt P04629 33-796) (receptor) | 
 | flag-tagged STAT3 (STAT3-WT-Flag) (from UniProt P40763 1-770) | binding [3]: binds
